The results in this text go back to PMC10996989.

By UniProt entry, the sequences of proteins in these tests, tags left out. Residues count along the entry.
UniProt Q8R4B8: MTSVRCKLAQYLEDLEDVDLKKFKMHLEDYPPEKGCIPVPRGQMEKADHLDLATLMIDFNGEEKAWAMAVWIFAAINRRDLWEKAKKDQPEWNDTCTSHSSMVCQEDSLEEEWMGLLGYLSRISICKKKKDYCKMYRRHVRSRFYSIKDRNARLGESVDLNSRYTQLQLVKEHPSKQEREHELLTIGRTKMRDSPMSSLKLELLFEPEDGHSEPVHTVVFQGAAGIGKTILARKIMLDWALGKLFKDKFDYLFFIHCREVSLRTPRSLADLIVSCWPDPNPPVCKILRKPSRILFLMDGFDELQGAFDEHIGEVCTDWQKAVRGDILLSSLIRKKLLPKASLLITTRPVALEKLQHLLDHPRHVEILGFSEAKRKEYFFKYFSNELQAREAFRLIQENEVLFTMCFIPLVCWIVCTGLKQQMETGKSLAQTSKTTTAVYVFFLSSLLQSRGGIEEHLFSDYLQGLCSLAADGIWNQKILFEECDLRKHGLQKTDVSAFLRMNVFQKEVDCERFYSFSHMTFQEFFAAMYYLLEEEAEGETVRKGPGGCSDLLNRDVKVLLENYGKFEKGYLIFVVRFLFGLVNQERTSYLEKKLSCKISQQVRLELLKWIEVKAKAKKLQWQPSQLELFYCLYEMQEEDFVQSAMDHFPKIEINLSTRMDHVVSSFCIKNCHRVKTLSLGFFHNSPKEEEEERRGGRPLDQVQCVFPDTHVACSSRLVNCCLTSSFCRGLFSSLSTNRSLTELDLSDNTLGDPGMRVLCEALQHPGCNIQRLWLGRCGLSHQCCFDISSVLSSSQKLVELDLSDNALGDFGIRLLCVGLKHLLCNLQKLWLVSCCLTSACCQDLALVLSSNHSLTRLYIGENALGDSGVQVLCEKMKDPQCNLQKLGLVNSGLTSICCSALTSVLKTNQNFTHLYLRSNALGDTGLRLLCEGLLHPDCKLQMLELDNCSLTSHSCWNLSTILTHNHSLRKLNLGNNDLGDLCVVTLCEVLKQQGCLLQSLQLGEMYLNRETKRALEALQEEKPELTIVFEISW
UniProt P55065, residues 18-493: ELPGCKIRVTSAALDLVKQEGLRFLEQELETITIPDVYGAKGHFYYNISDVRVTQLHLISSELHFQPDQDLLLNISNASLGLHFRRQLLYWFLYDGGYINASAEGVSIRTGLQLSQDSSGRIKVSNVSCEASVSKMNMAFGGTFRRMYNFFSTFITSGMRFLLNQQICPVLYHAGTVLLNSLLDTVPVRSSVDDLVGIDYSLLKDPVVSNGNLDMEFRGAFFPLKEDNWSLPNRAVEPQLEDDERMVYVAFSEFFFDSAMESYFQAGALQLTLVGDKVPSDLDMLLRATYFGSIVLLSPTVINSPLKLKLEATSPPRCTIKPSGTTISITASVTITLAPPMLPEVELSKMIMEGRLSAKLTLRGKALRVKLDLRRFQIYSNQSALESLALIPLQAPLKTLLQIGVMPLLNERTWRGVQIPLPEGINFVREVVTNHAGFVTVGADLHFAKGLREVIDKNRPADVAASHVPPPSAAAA

This experiment concerns the target NOD-like receptor thermal protein domain associated protein 3 (mouse (endogenous in M6200)) (UniProt Q8R4B8). In words: co-IP; primary antibody (anti-PLTP, anti-NLRP3 or IgG) on protein A + G agarose, incubated with cellular protein overnight at 4°C, washed with PBS, then western blot; n = 3. On the technique in general: Immunoblotting shows a protein as a band on a membrane.

Results are given in words; binding and its absence hold for the method and conditions named. In cells and extracts the contact can be indirect. Some binding calls cover weakened binding; strength is not graded here.

As for “Phospholipid transfer protein (from UniProt P55065 18-493)”, the binding entry is listed as “binds”.
